Pks13 thioesterase: 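Enzyme assay of the thioesterase domain of polyketide synthase 13; the read-out is not stated. Target: Polyketide synthase Pks13, Mycobacterium tuberculosis (UniProt I6X8D2). Tested at 30 µM. Higher reads as stronger inhibition (inferred from which compounds were picked for retests). About 67,000 compounds were tested under these conditions; 0.46% (about 300) showed 50% or more at least once.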
LiHisRS: 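Enzyme assay of histidyl-tRNA synthetase; the read-out is not stated. Target: Histidine-tRNA ligase, Leishmania infantum (UniProt A4I591). Tested at 30 µM. The record gives no direction; compounds that gave an IC50 in retests scored well above the rest, so higher reads as stronger inhibition. The assay is labelled LdHisRS but filed under L. infantum. Of about 69,000 compounds tested this way, about 410 (0.6%) reached 50% or more in at least one test.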
Leishmania in macrophages: 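Cell assay of Leishmania donovani living inside macrophages; the read-out is not stated. Compounds at 30 µM. The record gives no direction; compounds that gave an IC50 in retests scored well above the rest, so higher reads as stronger inhibition. About 69,000 compounds were tested under these conditions; 1.5% (about 1,000) showed 50% or more at least once.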
ClpP1P2: 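Protease assay of ClpP1P2, read by the AMC dye that it sets free. Target: ClpP1P2, Mycobacterium tuberculosis (UniProt P9WPC5 and UniProt P9WPC3). Concentration: 50 µM. Direction is inferred from only a few compounds that gave an IC50; most scored high, so higher reads as stronger inhibition. Most other retested compounds had strongly negative values. Of about 69,000 compounds tested this way, about 10 (0.015%) reached 50% or more in at least one test.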
Toxoplasma: 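Assay of Toxoplasma gondii numbers, read through their beta-galactosidase reporter with a colour substrate. Concentration: 10 µM. Higher reads as fewer parasites (inferred from which compounds were picked for retests). Of about 67,000 compounds tested this way, about 260 (0.38%) reached 50% or more in at least one test.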
CoaBC: 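Enzyme assay of CoaBC with a phosphate dye (Biomol Green) read at 650 nm. Target: Coenzyme A biosynthesis protein CoaBC, Mycobacterium tuberculosis (UniProt P9WNZ1). Tested at 30 µM. Higher reads as stronger inhibition, judged from the few compounds that gave an IC50. Most strong results did not repeat in a second test. Size under these conditions: about 67,000 compounds, about 40 of them at 50% or above in at least one test.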

By UniProt entry, the sequences of proteins in these tests, tags left out. Residues count along the entry.
UniProt I6X8D2, whole entry: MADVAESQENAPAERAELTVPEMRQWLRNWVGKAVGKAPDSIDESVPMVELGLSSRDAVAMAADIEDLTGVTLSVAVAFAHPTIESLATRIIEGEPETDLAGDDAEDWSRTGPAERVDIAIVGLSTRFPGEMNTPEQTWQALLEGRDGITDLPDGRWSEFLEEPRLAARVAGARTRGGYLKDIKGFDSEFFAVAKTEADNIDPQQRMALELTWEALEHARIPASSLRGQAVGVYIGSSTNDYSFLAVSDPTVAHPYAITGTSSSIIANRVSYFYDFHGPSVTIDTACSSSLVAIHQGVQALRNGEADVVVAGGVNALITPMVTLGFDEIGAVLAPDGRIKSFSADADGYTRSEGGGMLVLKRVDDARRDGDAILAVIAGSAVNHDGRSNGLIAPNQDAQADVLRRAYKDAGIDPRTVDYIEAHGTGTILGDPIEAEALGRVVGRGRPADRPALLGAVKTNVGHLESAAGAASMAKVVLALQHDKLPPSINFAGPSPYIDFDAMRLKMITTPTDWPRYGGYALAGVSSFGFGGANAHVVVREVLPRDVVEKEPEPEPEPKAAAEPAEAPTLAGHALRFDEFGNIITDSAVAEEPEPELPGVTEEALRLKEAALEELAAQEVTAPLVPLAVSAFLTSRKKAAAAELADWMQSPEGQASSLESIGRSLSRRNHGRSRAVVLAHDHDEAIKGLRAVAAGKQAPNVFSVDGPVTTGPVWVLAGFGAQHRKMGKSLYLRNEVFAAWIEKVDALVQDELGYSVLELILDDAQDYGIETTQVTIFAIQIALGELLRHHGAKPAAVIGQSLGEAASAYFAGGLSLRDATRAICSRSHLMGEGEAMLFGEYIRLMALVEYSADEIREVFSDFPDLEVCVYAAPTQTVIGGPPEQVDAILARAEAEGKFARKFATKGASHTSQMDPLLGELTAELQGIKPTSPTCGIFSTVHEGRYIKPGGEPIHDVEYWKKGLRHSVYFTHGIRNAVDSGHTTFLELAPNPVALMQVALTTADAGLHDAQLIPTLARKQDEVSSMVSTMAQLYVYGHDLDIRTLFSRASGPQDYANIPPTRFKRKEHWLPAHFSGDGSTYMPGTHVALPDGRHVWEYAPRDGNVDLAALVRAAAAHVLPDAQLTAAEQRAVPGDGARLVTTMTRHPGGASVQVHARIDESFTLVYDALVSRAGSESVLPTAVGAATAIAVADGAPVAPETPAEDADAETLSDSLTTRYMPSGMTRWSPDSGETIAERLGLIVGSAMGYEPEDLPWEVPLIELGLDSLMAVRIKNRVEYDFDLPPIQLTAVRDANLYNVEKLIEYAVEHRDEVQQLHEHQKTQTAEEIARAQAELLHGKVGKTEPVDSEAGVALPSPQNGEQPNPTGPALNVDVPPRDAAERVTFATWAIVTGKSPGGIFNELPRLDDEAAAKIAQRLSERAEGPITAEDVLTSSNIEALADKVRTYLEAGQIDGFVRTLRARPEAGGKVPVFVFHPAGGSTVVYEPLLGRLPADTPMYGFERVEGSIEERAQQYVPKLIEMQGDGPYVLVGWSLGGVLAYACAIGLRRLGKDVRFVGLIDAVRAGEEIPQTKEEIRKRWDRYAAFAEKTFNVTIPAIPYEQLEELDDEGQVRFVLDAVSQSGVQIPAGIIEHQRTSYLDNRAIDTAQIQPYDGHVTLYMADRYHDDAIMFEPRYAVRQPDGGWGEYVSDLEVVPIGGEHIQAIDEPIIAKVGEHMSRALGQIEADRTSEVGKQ
UniProt A4I591, 1-473: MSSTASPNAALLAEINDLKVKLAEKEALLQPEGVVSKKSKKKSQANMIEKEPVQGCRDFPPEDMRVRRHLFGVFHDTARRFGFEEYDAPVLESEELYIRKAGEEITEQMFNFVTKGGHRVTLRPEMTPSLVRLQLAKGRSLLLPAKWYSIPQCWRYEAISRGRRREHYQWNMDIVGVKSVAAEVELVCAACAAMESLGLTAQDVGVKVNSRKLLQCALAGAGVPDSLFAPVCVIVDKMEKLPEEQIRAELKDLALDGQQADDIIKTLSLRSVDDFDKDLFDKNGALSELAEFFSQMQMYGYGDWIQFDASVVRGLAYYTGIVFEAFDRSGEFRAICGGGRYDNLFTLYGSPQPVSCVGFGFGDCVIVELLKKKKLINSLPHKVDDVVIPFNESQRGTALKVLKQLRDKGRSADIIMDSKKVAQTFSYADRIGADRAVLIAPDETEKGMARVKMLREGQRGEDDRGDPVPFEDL
UniProt P9WPC5, whole entry: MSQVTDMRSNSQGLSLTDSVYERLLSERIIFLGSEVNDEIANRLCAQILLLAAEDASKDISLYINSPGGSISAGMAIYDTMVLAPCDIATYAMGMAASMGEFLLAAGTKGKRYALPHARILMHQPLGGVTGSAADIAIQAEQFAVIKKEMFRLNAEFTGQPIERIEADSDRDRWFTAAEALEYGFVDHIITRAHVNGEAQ
UniProt P9WPC3, whole entry partner: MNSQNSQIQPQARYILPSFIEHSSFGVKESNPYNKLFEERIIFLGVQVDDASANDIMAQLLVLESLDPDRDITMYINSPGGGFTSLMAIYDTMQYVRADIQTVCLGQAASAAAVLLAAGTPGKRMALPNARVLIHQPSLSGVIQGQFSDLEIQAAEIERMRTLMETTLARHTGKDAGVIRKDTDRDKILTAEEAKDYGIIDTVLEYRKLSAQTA
UniProt P9WNZ1, whole entry: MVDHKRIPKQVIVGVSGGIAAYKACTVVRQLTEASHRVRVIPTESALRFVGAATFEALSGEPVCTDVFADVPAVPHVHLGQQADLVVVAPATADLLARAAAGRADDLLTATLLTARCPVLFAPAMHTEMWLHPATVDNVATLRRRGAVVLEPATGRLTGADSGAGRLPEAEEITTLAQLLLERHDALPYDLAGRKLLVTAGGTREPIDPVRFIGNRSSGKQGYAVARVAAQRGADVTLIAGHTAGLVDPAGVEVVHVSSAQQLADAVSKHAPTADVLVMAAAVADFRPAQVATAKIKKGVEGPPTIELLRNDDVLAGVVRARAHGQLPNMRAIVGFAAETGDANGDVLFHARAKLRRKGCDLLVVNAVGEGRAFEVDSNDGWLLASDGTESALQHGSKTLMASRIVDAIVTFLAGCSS

The filed quantity is “Percent Effect” (%).
The record does not define 0% and 100%; most values in the screen are far below 50% and negative numbers occur (in some assays of this library far below -100).
Compounds were drawn at random from those tested, without regard to their results.

compound: CCN(C)C[C@@H]1CN(Cc2cccc(O)c2)C[C@@H]1CO
Pks13 thioesterase: -4.828%
LiHisRS: 9.167%
Leishmania in macrophages: 40.29%
ClpP1P2: -33.57%
Toxoplasma: -42.8%
CoaBC: 0.8696%

compound: CC(C)n1cc(CN2CCCN(C(=O)CC3CCCO3)CC2)cn1 (stereo not given)
Pks13 thioesterase: 3.464%
LiHisRS: 14.29%
Leishmania in macrophages: 20.25%
ClpP1P2: -4.546%
Toxoplasma: -19%
CoaBC: -0.8772%

compound: N#Cc1cccc(-c2ncnn2CC2(O)CCCCC2)c1
Pks13 thioesterase: -20.88%
LiHisRS: 20.43%
Leishmania in macrophages: 15.4%
ClpP1P2: -5.286%
Toxoplasma: 1.966%
CoaBC: -4.263%

compound: NCCO[C@H]1C[C@@H](O)C12CCN(Cc1c(F)cccc1F)CC2
Pks13 thioesterase: -22.68%
LiHisRS: 16.13%
Leishmania in macrophages: 13.06%
ClpP1P2: -13.15%
CoaBC: 5.289%

compound: CS(=O)(=O)NC1CCCN(C(=O)NCc2ccoc2)C1 (stereo not given)
Pks13 thioesterase: -5.453%
LiHisRS: 20.35%
Leishmania in macrophages: 12.36%
ClpP1P2: -39.03%
Toxoplasma: 1.354%
CoaBC: 3.394%

compound: O=C(c1ccco1)N1CCN2C[C@H](OCc3cccnc3)C[C@H]2C1
Pks13 thioesterase: -9.176%
LiHisRS: 26%
ClpP1P2: -6.779%
CoaBC: 3.75%

compound: COc1ccc(CC2CN(C(=O)c3ocnc3C)CCO2)cc1 (stereo not given)
Pks13 thioesterase: 4.008%
LiHisRS: -8.602%
Leishmania in macrophages: -6.657%
ClpP1P2: 4.321%
Toxoplasma: -2.467%
CoaBC: 5.499%

compound: N[C@@H](Cc1c[nH]cn1)C(=O)N1CCC(Oc2ccc(Cl)cc2)CC1
Pks13 thioesterase: 21.05%
LiHisRS: 20.41%
Leishmania in macrophages: 16.79%
ClpP1P2: -10.02%
Toxoplasma: 1.583%
CoaBC: -12.4%

compound: CC(C)c1nccn1C1CCCN(C(=O)c2ccc3c(c2)COC3)C1 (stereo not given)
Pks13 thioesterase: -8.773%
LiHisRS: 16.53%
Leishmania in macrophages: -2.018%
ClpP1P2: -9.271%
Toxoplasma: -2.085%
CoaBC: 4.968%

compound: CC(=O)N1CCC(N2CCC(c3nc(C)cc(C)n3)C2)CC1.O=CO (stereo not given)
Leishmania in macrophages: 35.23%
Toxoplasma: 3.873%

compound: [H][C@@]12CCN(C(=O)c3cnccn3)C[C@@]1([H])O[C@H](C)C2
Leishmania in macrophages: 4.165%
Toxoplasma: -5.295%

compound: Cc1cccc(CN2CCCn3c(nnc3Cn3cccn3)C2)n1.O=C(O)C(F)(F)F
Leishmania in macrophages: 19.83%
Toxoplasma: 9.488%

compound: CCn1nc(C)cc1C(=O)NCc1cc(N(C)C)nc2ccccc12
Pks13 thioesterase: -11.52%
LiHisRS: 11.5%
Leishmania in macrophages: 34.59%
ClpP1P2: -46.45%
Toxoplasma: 2.083%
CoaBC: 7.009%

compound: Cc1ccc([C@]2(O)CC[C@H]3CN(Cc4cccnc4)C[C@H]32)nc1
Pks13 thioesterase: 1.476%
LiHisRS: 10.31%
ClpP1P2: 18.55%
CoaBC: 0.2421%

compound: c1cnc(NC[C@H]2OC[C@@H]3CCN(Cc4cccnc4)C[C@@H]32)nc1
Pks13 thioesterase: -691.9%
LiHisRS: 8.333%
ClpP1P2: -16.67%
CoaBC: 0.8631%

compound: COC(=O)[C@H]1CCCCN1C(=O)c1cccc(-n2cccn2)c1
Pks13 thioesterase: -28.6%
LiHisRS: 9.333%
Leishmania in macrophages: 18.32%
ClpP1P2: 3.18%
Toxoplasma: 0.1355%
CoaBC: -8.678%

compound: Cl.O=C(NCCn1nc(C2CCNC2)c2cccnc21)C1CC1 (stereo not given)
Leishmania in macrophages: 10.66%
Toxoplasma: -7.37%

compound: CC(C)C(=O)N1CCC2(CC1)[C@@H]1CN(C(=O)N(C)C)C[C@@H]1C(=O)N2C
Pks13 thioesterase: -37.87%
LiHisRS: 13.59%
ClpP1P2: -15.52%
CoaBC: 0.7634%

compound: CN(C)c1ncc(I)c(C2CCCN2S(C)(=O)=O)n1 (stereo not given)
LiHisRS: 12.86%
Leishmania in macrophages: 22.04%
ClpP1P2: 3.705%
Toxoplasma: 1.532%
CoaBC: -4.854%

compound: CCOC(=O)Cc1csc(NC(=O)c2cc(=O)c(OC)c[nH]2)n1
Pks13 thioesterase: 5.083%
LiHisRS: 15.79%
Leishmania in macrophages: 4.303%
ClpP1P2: -4.917%
Toxoplasma: -14.1%
CoaBC: -0.5051%

compound: CNC(=O)C1CC2(CCN(C(=O)c3csnn3)CC2)c2ccccc21 (stereo not given)
Pks13 thioesterase: 0.8531%
LiHisRS: -10.53%
Leishmania in macrophages: 27.62%
ClpP1P2: -20.88%
Toxoplasma: -7.211%
CoaBC: -1.525%

2 of the entries, repeated:

With CCOC(=O)Cc1csc(NC(=O)c2cc(=O)c(OC)c[nH]2)n1 the screen gave Pks13 thioesterase: 5.083%; LiHisRS: 15.79%; Leishmania in macrophages: 4.303%; ClpP1P2: -4.917%; Toxoplasma: -14.1%; CoaBC: -0.5051%.
With CCn1nc(C)cc1C(=O)NCc1cc(N(C)C)nc2ccccc12 the screen gave Pks13 thioesterase: -11.52%; LiHisRS: 11.5%; Leishmania in macrophages: 34.59%; ClpP1P2: -46.45%; Toxoplasma: 2.083%; CoaBC: 7.009%.

Source: ChEMBL document CHEMBL3988442, “University of Dundee, Small-Polar-MMV Screening Library” (2021).